Results: PubChem BioAssay AID504444 (National Center for Advancing Translational Sciences (NCATS), 2011)
The campaign covered roughly 360,000 compounds. About 7,500 (2.1%) were called active. The shares of active, inactive and inconclusive entries below differ from those in the screen. Calls follow the shape of the dose curve; as a rule, active = well fitted inhibition curve with a large enough effect; inconclusive = small, poorly fitted or top-dose-only effect, or effect the other way; inactive = flat fitted curve, though single readings scatter. Where the call is inconclusive, the potency comes from a doubtful curve fit.
Potency is read from the fitted curve at half-maximal effect.

Assay: Nrf2 qHTS screen for inhibitors; also: nearly all actives have a fitted effect of over 60% in size
Conditions: A549 ARE-Fluc reporter, luciferase luminescence, 18-24 h; series mostly up to 46 µM
In short: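 Nrf2 function is reported as luminescence of an ARE-controlled luciferase in A549 cells. Compounds were tested at several concentrations, and a CellTiter-Fluor read on the same wells flagged cytotoxicity.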
With `Cc1ccc(C)c(S(=O)(=O)N2CCN(C(=O)CCCc3c[nH]c4ccccc34)CC2)c1` the Potency was inconclusive: 29.1 µM [falling, single point]. With `O=[N+]([O-])c1cc(C(F)(F)F)ccc1NCCCCNS(=O)(=O)c1ccc2ccccc2c1` the Potency was inconclusive: 18.4 µM [falling, single point]. In the case of `C/C(Cc1ccccc1)=N\NC(=O)C1CCCCC1`, the Potency is reported as “inactive”. With `CCOc1cc(C(C(=O)NCC2CCCO2)N(C(=O)Cn2nnc3ccccc32)c2ccc(C(C)=O)cc2)ccc1O` (stereo unspecified) the Potency was inconclusive: 18.4 µM [activator, single point]. In the case of `Cc1ccc(S(=O)(=O)N(Cc2cccc(Cl)c2)C(=O)N2CCN(C)CC2)cc1`, the Potency is reported as “inactive”. For `CCOc1ccccc1NC(=O)c1nnn(CC(=O)Nc2ccc(OC)c(OC)c2)c1N`, the Potency was “inactive”. With `COc1ccc(C(=O)CCNc2cccc(Cl)c2)cc1` the Potency was inconclusive: 18.4 µM [activator, single point]. In the case of `Cc1cc(N2CCCC2)ccc1/C=C1/C(=O)N(C)C(=S)N1C`, the Potency is reported as inconclusive: 29.1 µM [activator, single point]. In the case of `COc1cc(/C=C(/C#N)c2ccc(F)cc2)ccc1Oc1ccc([N+](=O)[O-])cn1`, the Potency is reported as inconclusive: 25.9 µM [falling, partial curve, poor fit]. In the case of `CCCCc1ccc(NC(=O)CSC2=NN3CCCC(=O)N=C3S2)cc1`, the Potency is reported as “inactive”. With `O=C(NC1CCCCC1)c1c(O)nc2sccn2c1=O` the Potency was inconclusive: 29.1 µM [falling, single point]. In the case of `Cc1cc(C(=O)NNC(=O)c2ccc(F)cc2)c(C)s1`, the Potency is reported as inconclusive: 14.6 µM [activator, partial curve]. In the case of `COc1ccc(S(=O)(=O)N(C)C)cc1NCC(=O)Nc1ccc(Br)cc1F`, the Potency is reported as inconclusive: 9.2 µM [falling, partial curve, poor fit]. For `CC1C/C(=C/c2ccncc2)C(=O)/C(=C/c2ccncc2)C1` (stereo unspecified), the Potency was inconclusive: 0.082 µM [falling, full curve, poor fit]. In the case of `Cc1ccc(CNC(=O)c2ccc3c(O)c(S(=O)(=O)c4ccccc4)c(=O)[nH]c3c2)cc1`, the Potency is reported as “inactive”. With `Cc1cccc2cc(COC(=O)COc3ccccc3)c(=O)[nH]c12` the Potency was “inactive”. With `COC(=O)Cc1[nH]n(-c2nc3ccccc3s2)c(=O)c1C(C)=O` the Potency was inconclusive: 6.51 µM [activator, full curve, poor fit]. With `O=C(c1ccccc1Cl)N1CCSCC1` the Potency was “inactive”. For `COCCNC(=O)c1cc(-c2ccccc2OC)on1`, the Potency was inconclusive: 23.1 µM [activator, single point]. With `O=S(=O)(c1cccc(-c2nnc(SCc3ccc(Cl)cc3)o2)c1)N1CCCCC1` the Potency was inconclusive: 14.6 µM [falling, single point]. For `O=S(=O)(Nc1ccc(N=Nc2ccc(O)c3ccccc23)cc1)c1ccccc1`, the Potency was inconclusive: 29.1 µM [falling, single point]. In the case of `Nc1nc2n(n1)C(c1ccco1)CC(c1ccc(Cl)cc1)N2` (stereo unspecified), the Potency is reported as inconclusive: 23.1 µM [falling, partial curve, poor fit]. In the case of `COc1ccc(C(CNC(=O)c2cccc(S(=O)(=O)Nc3ccc(C)cc3)c2)N2CCCCC2)cc1` (stereo unspecified), the Potency is reported as inconclusive: 4.11 µM [activator, partial curve, poor fit]. For `ClCCn1cnc2c(SCc3ccccc3)ncnc21`, the Potency was inconclusive: 4.11 µM [activator, full curve]. With `COc1ccc(S(=O)(=O)Nc2cc3c4c(c2)CCC(=O)N4CCC3)cc1` the Potency was inconclusive: 18.4 µM [falling, partial curve]. For `COc1ccccc1N1CCN(C(CNC(=O)c2ccc3c(c2)OCO3)c2cccnc2)CC1` (stereo unspecified), the Potency was inconclusive: 14.6 µM [falling, partial curve, poor fit]. With `Cc1c(CCO)c(=O)n2c([nH]c3ccccc32)c1C#N` the Potency was “inactive”. For `Cc1nc2cc(F)ccc2n1C1CCN(S(=O)(=O)c2ccccc2)CC1`, the Potency was inconclusive: 29.1 µM [falling, single point]. In the case of `COc1ccc(OC)c(C(C)NC(=O)Cn2c(=O)cc(C)c3c(C)nn(-c4ccc(C)cc4)c32)c1` (stereo unspecified), the Potency is reported as “inactive”. For `COc1ccc(/C=C2\CCOC2=O)cc1`, the Potency was inconclusive: 18.4 µM [activator, single point]. In the case of `CNC(=O)C(=O)NCC1OCCN1S(=O)(=O)c1ccc([N+](=O)[O-])cc1` (stereo unspecified), the Potency is reported as inconclusive: 0.326 µM [falling, full curve, poor fit]. In the case of `CC1=NN(c2ccccc2)C(=O)/C1=C/C=C/C=C/N(C)C`, the Potency is reported as inconclusive: 4.11 µM [falling, partial curve]. With `CCOC(=O)/C(=N/Nc1ccc(OC)cc1)Sc1nnc(CCc2ccccc2)n1-c1ccccc1` the Potency was inconclusive: 8.2 µM [activator, partial curve, poor fit]. With `NC(=O)C1CCN(CC(=O)Nc2ccccc2N2CCOCC2)CC1` the Potency was inconclusive: 0.0058 µM [falling, full curve, poor fit]. For `CCCCCCCCCS(=O)(=O)N/N=C/c1cccc([N+](=O)[O-])c1`, the Potency was inconclusive: 20.6 µM [falling, single point]. For `Cc1cc(C)cc(NC(=O)/C(C#N)=C/c2cn(CC(=O)NCc3ccco3)c3ccccc23)c1`, the Potency was inconclusive: 8.2 µM [falling, partial curve, poor fit]. With `COc1ccc(Br)cc1C(=O)NC(=S)Nc1c(C)n(C)n(-c2ccccc2)c1=O` the Potency was inconclusive: 16.4 µM [falling, partial curve, poor fit]. With `Cc1cc(C2=NNC(=NC3CC3)SC2)c(C)n1-c1ccccc1F` the Potency was active: 0.92 µM. In the case of `COc1ccccc1NC(=O)C(=O)N1N=C(C(C)C)CC1(O)C(F)(F)F` (stereo unspecified), the Potency is reported as active: 23.1 µM. For `CCCCCc1nc2c(=O)n(C)c3ccccc3c2o1`, the Potency was “inactive”. In the case of `N=C1C(c2nc3ccccc3s2)=C(O)CN1Cc1ccco1`, the Potency is reported as inconclusive: 2.91 µM [activator, single point]. For `CCOc1ccc(S(=O)(=O)N(CC(=O)NCCSc2ccccc2)c2ccccc2)cc1`, the Potency was “inactive”. With `CCN(c1ccc(OC)cc1)S(=O)(=O)c1ccc2[nH]c(=O)ccc2c1` the Potency was inconclusive: 0.461 µM [activator, full curve]. With `O=C(Cn1c2ncccc2c(=O)n1-c1ccccc1)Nc1ccc(F)c(F)c1` the Potency was inconclusive: 18.4 µM [falling, single point]. For `Cc1cc(OCC(=O)NNC(=S)NC(=O)c2cccs2)ccc1Cl`, the Potency was inconclusive: 29.1 µM [falling, single point]. With `Cc1ccc(S(=O)(=O)NCc2ccc3c(c2)cc(C)n3C)cc1` the Potency was inconclusive: 23.1 µM [activator, partial curve, poor fit]. In the case of `O=C(NCCc1nnc2ccccn12)c1cccs1`, the Potency is reported as inconclusive: 5.8 µM [activator, partial curve]. With `CN(C)c1nc(-c2ccccc2)c2cnn(Cc3ccccc3)c2n1` the Potency was “inactive”. For `COC(=O)c1ccccc1NC(=O)CCS(=O)(=O)c1ccc(Br)cc1`, the Potency was inconclusive: 29.1 µM [activator, single point]. For `O=C1c2ccccc2S(=O)(=O)c2cc(N3CCC4(CC3)OCCO4)ccc21`, the Potency was inconclusive: 11.6 µM [activator, partial curve]. For `CN=c1scc(C)n1/N=C/c1cc(Br)c(O)c(Br)c1`, the Potency was inconclusive: 0.82 µM [activator, full curve, poor fit]. In the case of `C=CCn1c(SCC(=O)Nc2cccnc2Cl)nnc1-c1ccc(Cl)cc1`, the Potency is reported as inconclusive: 32.6 µM [falling, partial curve, poor fit]. With `CN(C(=O)CCN1C(=O)S/C(=C\c2ccccc2)C1=O)C1CCS(=O)(=O)C1` (stereo unspecified) the Potency was “inactive”. For `Cc1ccc2nc(-c3ccc(NS(=O)(=O)c4ccc(F)cc4)cc3)sc2c1`, the Potency was inconclusive: 2.06 µM [activator, full curve]. With `CC(=O)Nc1cc(C(=O)OCC(=O)c2ccccc2)ccc1C` the Potency was inconclusive: 0.259 µM [activator, full curve, poor fit]. For `Cc1cccc(-c2nnc(-c3cccc4ccccc34)o2)c1`, the Potency was inconclusive: 1.64 µM [activator, full curve]. In the case of `Cc1cccc(-c2nc(Cn3c(=O)cc(-c4ccccc4)c4c(C)nn(C)c43)c(C)o2)c1`, the Potency is reported as “inactive”. For `O=C(NC1CCCC1)c1cnn2c(C(F)(F)F)cc(-c3ccco3)nc12`, the Potency was inconclusive: 13 µM [falling, partial curve, poor fit]. In the case of `COc1ccc(-c2ncncc2-c2ccccc2)c(O)c1`, the Potency is reported as inconclusive: 3.66 µM [activator, partial curve, poor fit]. In the case of `O=C(NCCCN1CCCC1=O)c1ccc(Cl)c(S(=O)(=O)N2CCCCC2)c1`, the Potency is reported as inconclusive: 20.6 µM [falling, single point]. For `O=C(Nc1nccs1)c1ccc(S(=O)(=O)N2CCCCC2)cc1`, the Potency was inconclusive: 20.6 µM [falling, single point]. For `CCOC(=O)C1=C(Cc2ccc(OC)cc2)C(=O)c2ccccc2C1=O`, the Potency was “inactive”. For `CC(C)(C)OC(=O)CC[C@@H](C(=O)NCCCCCCCCCCC(=O)N1CCN(C(=O)OC(C)(C)C)CC1)n1cc(CCCCCNC(=O)OC(C)(C)C)nn1`, the Potency was inconclusive: 1.46 µM [falling, partial curve]. In the case of `COC(=O)C1=C(Nc2ccccc2NC(=O)c2ccccc2C(=O)O)CSC1`, the Potency is reported as inconclusive: 29.1 µM [activator, single point]. In the case of `CCOC(=O)CNC(=S)N(Cc1cccs1)C1CCCC1`, the Potency is reported as “inactive”. In the case of `Cc1ccc(N2C(=O)c3ccccc3C2=O)cc1Cl`, the Potency is reported as inconclusive: 29.1 µM [activator, single point].
